Measurements taken from patent US20030175216A1, “Oral antimicrobial and anti-odor compositions” (Innoscent LTD., priority 2001, published 2003).
For at least one compound, name, drawing or mass did not settle the structure.

What was measured:
Assay in all cases: Agar plate zone of growth inhibition
E. coli = format: cell-based, Escherichia coli
Experimental: (§1) The higher alcohols were tested for antimicrobial activity against Gram positive bacteria (Streptococcus mutans), Gram negative bacteria (Pseudomonas spp., Escherichia coli, […]) and the yeast Candida albicans. […] Five microliters of the higher alcohol solutions were placed on the surface of a rich (Brain-heart infusion) agar plate immediately after seeding with a mono-specific bacterial or yeast culture. The plates were incubated for 24-48 hours, and, following further microbial proliferation, the diameters of the zones of growth inhibition were measured (results expressed in centimeters).

E. faecalis = format: cell-based; conditions: 5 μl of 0.1% solution in 70% ethanol
Experimental: as §1

S. mutans = format: cell-based, Streptococcus mutans; conditions: 5 μl of 1% solution (C8-C12 in 70% ethanol, C14-C18 in 100% ethanol)
Experimental: as §1, with “centimeters). In a further set of experiments, the effect of solvent type on the antimicrobial activity of the C9 alcohol was investigated. […] These solutions were tested for antimicrobial activity towards three microorganisms (M. lysodeikticus, S. mutans and Corynebacterium xerosis) using the same assay as described above. The relationship of the concentration of the C9 alcohol to its antimicrobial activity was also investigated. […] These solutions were tested in the assay described above for their ability to inhibit the growth of the bacteria M. lysodeikticus and S. mutans.” for “centimeters).”

C. albicans = format: cell-based, Candida albicans; conditions: 5 μl of 1% solution (C8-C12 in 70% ethanol, C14-C18 in 100% ethanol)
Experimental: as §1

[1] = 5 μl of 1% solution (C8-C12 in 70% ethanol, C14-C18 in 100% ethanol)

| Structure (SMILES) | diameter of zone of growth inhibition, E. coli (E. coli; 5 μl of 0.1% solution in 70% ethanol) | diameter of zone of growth inhibition, E. coli (E. coli; [1]) | diameter of zone of growth inhibition, E. faecalis (E. faecalis) | diameter of zone of growth inhibition, S. mutans (S. mutans) | diameter of zone of growth inhibition, C. albicans (C. albicans) |
| --- | --- | --- | --- | --- | --- |
| CCCCCCCCO [C8] | 0.5+ − centimeters | 0.4+ − centimeters | − | − | 0.7 + −^2 centimeters |
| CCCCCCCCCCCCO [C12] |  | 0.6+ − centimeters | 1.0+ − centimeters | 0.6+ − centimeters | 0.8+ − centimeters |
